Data as given in patent US20130123350.
For at least one entry, the source does not settle the construct or the ends of the probe.

Tested on: c-Met (endogenous, T98G glioma cells) (Homo sapiens)
Assay: activity in cells
Conditions: 2'-F on all C and U; 1 ug/mL inhibits HGF (50 ng/mL)-induced T98G cell movement; protein on the cell surface; variant of g38

Q: “GGGACGCUCACGUACGCUAACCAGGAGCAUUAGACCGGGGAAAGAAGGAGUACCGUCUGGUCAGUGCCUGGACGUGCAGU [g38 2'-F]” was tested. Which “functional effect of the aptamer” value did it give?
A: active
